Assay results as given in the supplement of paper PMC10849652.
The other results are listed elsewhere or left out.

Chains of the proteins cited; added tags and fusions are not shown. Lines headed by an entry give the natural chain unless they say otherwise; changes in a name come on top.
UniProt Q9Y6C9: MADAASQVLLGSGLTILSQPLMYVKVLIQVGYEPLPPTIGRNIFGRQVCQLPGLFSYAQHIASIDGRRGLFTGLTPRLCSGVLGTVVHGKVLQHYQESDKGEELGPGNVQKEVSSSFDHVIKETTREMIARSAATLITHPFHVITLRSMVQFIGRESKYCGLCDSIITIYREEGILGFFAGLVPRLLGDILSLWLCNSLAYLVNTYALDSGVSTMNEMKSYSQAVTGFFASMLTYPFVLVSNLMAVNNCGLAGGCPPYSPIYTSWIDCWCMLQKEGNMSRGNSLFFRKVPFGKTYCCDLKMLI
UniProt Q9HCI7: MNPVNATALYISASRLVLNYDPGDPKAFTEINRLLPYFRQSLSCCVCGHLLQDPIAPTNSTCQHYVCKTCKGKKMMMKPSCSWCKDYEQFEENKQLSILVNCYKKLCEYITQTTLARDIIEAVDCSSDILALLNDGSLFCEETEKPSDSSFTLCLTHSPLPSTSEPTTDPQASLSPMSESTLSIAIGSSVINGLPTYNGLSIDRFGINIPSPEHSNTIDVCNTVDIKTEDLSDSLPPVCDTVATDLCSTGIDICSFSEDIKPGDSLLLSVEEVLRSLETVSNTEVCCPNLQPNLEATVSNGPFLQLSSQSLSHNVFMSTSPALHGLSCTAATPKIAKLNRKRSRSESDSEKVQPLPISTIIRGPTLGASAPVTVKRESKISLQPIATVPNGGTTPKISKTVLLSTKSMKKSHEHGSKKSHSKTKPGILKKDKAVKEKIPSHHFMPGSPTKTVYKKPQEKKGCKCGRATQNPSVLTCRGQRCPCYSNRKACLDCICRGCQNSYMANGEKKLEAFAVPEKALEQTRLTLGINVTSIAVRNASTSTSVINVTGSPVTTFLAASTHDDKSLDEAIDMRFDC
UniProt Q9HD23: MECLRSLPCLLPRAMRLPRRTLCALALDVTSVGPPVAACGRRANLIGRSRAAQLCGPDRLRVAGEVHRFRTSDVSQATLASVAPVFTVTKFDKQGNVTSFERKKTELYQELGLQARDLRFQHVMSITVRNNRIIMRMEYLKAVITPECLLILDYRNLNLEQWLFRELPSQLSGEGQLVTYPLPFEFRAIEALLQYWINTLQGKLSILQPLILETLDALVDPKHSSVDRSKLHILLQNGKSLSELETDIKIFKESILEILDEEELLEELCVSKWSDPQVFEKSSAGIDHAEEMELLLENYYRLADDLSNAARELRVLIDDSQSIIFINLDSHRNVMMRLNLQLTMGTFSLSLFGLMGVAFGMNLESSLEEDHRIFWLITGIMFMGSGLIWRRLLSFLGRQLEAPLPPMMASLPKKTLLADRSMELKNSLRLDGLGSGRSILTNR
UniProt Q9Y2Z2: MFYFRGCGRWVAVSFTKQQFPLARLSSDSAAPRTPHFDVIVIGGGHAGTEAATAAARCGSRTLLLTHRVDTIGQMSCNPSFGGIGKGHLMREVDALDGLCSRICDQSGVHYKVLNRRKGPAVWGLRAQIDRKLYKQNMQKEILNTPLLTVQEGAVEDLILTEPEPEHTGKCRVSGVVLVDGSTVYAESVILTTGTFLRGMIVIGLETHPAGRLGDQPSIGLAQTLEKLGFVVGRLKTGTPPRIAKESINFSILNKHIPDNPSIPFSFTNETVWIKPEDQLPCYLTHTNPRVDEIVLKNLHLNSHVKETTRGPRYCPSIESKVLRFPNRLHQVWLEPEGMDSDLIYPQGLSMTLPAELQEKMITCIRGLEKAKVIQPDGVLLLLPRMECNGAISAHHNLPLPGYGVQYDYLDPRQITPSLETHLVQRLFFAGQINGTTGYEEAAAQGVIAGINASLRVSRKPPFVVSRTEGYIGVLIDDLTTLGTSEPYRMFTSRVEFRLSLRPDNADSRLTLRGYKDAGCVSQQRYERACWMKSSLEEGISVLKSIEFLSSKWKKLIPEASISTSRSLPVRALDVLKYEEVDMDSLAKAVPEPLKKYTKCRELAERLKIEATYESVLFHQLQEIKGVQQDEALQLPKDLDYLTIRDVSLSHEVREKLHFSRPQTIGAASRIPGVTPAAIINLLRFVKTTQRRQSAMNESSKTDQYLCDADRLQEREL
UniProt Q6P444: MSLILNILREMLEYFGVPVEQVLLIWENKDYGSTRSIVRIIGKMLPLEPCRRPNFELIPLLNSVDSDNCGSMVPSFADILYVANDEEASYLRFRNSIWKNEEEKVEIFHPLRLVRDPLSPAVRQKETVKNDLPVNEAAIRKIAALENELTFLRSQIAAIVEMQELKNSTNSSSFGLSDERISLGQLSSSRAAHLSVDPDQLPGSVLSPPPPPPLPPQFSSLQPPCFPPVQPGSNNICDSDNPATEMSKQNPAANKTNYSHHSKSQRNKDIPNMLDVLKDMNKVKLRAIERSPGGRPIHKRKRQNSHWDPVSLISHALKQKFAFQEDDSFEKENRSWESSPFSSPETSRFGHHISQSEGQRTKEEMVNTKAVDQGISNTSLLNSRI
UniProt Q765P7: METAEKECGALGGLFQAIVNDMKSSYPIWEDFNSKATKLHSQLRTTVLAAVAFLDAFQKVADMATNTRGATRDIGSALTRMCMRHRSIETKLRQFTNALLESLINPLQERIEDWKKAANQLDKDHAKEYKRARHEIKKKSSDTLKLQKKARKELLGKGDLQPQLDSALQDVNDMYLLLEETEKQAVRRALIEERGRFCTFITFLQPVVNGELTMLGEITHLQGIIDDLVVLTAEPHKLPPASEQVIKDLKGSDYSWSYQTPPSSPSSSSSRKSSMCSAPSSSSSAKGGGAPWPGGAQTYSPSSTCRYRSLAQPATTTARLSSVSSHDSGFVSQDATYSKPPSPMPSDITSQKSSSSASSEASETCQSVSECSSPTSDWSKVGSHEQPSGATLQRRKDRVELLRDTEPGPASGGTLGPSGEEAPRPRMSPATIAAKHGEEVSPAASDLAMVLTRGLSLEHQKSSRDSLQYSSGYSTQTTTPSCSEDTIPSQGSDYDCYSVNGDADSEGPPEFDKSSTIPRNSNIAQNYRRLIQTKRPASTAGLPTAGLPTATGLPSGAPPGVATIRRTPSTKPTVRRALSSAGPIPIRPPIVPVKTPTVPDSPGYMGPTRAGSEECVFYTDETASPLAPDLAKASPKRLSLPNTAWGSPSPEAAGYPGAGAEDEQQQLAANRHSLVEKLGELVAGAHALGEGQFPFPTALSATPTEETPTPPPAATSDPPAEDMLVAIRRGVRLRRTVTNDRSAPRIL
UniProt Q9NZJ7, whole entry, looked up: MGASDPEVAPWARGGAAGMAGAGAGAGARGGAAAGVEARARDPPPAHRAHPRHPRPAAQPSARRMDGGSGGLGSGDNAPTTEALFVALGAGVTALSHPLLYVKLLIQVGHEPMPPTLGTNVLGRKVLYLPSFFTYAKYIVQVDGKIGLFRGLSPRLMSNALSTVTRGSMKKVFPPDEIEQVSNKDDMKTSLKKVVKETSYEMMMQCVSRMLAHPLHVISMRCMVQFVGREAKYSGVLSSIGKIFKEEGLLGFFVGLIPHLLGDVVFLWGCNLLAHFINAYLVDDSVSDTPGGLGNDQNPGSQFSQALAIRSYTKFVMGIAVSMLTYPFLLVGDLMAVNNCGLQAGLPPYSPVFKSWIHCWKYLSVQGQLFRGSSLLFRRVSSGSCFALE
UniProt P13640: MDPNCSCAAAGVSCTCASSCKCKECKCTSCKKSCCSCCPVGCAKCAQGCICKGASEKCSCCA
UniProt O75570: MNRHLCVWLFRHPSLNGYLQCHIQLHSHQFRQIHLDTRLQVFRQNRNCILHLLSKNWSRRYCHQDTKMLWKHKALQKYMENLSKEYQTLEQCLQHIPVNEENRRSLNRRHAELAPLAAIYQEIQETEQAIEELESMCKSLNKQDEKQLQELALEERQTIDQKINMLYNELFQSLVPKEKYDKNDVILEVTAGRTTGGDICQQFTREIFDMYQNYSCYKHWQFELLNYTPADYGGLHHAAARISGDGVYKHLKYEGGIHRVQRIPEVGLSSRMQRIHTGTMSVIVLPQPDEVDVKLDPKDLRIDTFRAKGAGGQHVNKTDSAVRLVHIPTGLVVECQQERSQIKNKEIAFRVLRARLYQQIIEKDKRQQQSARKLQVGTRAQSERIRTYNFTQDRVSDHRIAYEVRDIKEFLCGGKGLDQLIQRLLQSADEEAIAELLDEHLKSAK
UniProt Q96EF0: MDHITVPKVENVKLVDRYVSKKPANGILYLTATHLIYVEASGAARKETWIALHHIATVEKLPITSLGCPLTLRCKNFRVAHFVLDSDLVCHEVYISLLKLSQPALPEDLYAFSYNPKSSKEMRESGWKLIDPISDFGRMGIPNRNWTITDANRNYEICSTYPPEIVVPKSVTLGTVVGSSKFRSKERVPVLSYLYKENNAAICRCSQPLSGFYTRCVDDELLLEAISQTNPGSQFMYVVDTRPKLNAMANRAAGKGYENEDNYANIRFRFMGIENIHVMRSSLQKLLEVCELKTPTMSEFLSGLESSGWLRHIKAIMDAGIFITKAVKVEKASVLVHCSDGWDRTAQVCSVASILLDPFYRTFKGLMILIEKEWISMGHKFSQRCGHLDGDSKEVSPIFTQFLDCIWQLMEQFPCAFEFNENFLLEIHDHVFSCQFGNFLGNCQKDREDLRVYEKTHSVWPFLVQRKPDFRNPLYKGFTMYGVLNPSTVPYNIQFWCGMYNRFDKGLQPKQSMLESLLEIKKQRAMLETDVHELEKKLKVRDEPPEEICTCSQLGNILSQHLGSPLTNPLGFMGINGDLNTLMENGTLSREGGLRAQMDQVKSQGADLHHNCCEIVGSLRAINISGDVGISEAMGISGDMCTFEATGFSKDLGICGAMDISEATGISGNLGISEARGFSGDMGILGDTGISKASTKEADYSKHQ
UniProt Q9H903: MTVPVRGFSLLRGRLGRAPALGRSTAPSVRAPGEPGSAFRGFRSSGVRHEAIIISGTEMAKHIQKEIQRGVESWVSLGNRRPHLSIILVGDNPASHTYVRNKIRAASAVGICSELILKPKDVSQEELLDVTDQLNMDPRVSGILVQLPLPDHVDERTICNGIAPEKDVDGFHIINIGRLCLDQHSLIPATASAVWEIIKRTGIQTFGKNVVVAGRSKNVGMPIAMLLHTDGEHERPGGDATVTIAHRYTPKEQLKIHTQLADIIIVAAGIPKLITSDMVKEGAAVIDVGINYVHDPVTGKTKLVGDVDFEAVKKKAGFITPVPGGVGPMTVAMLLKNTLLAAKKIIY
UniProt Q96HJ5: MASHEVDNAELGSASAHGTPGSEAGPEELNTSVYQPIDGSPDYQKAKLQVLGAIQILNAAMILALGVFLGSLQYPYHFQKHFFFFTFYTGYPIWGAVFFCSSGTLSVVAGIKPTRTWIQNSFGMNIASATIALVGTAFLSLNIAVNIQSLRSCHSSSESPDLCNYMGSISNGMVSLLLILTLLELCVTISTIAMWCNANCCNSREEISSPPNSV

Key:
Assay in all cases: log2 fold change, soluble protein after heating vs DMSO (PISA); higher = thermal stabilisation; K562 lysate, 10 uM; active = over 0.2 and 3.5 SD of the protein, either way, in both replicates (recomputed)
[1] = compound: NCC(=O)Nc1ccc(-n2nc(C(F)(F)F)cc2-c2ccc3c(ccc4ccccc43)c2)cc1
Summary of the method: (§1)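 Values give the log-two fold change in thermal stability against solvent controls, from duplicates. Crude K562 extract at 1 mg/mL protein, made by dounce homogenisation in PBS pH 7.4 with 1 mM MgCl2, was treated with 10 μM compound for 30 min. After 3 min heating across 48°C-58°C, aliquots were pooled, adjusted to 0.5% NP-40 at 4°C and centrifuged at 21,000xg for 90 min. The supernatant was measured by TMTpro 16plex LC-MS/MS with channel sums equalised.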

vorinostat = compound: O=C(CCCCCCC(=O)Nc1ccccc1)NO [vorinostat]
Summary of the method: as §1

silmitasertib = compound: O=C(O)c1ccc2c(c1)nc(Nc1cccc(Cl)c1)c1ccncc12 [silmitasertib]
Summary of the method: as §1

[2] = compound: O=C1NC(=O)C(c2cnc3ccccn23)=C1c1cn2c3c(cc(F)cc13)CN(C(=O)N1CCCCC1)CC2
Summary of the method: as §1

entospletinib = compound: c1cn2cc(-c3ccc4cn[nH]c4c3)nc(Nc3ccc(N4CCOCC4)cc3)c2n1 [entospletinib]
Summary of the method: as §1

Measured: log2 fold change

MTCH2 (UniProt Q9Y6C9)
active: vorinostat -0.432
inactive: [1] -0.016 | silmitasertib -0.001 | [2] -0.075 | entospletinib 0.026

MRPL9 (UniProt Q9BYD2)
inactive: [1] 0.044 | vorinostat -0.073 | silmitasertib 0.018 | [2] -0.028 | entospletinib -0.02

MRPL46 (UniProt Q9H2W6)
inactive: [1] 0.021 | vorinostat -0.21 | silmitasertib 0.155 | [2] 0.036 | entospletinib -0.049

MRPL28 (UniProt Q13084)
inactive: [1] 0.002 | vorinostat -0.037 | silmitasertib 0.022 | [2] 0.044 | entospletinib 0.129

MSL2 (UniProt Q9HCI7)
inactive: [1] 0.113 | vorinostat -0.106 | silmitasertib 0.081 | [2] 0.041 | entospletinib -0.041

MRS2 (UniProt Q9HD23)
inactive: [1] -0.081 | vorinostat 0.043 | silmitasertib 0.006 | [2] -0.047 | entospletinib -0.025

MRPS5 (UniProt P82675)
inactive: [1] 0.028 | vorinostat 0.041 | silmitasertib 0.004 | [2] 0.034 | entospletinib 0.045

MTO1 isoform 4 (UniProt Q9Y2Z2)
inactive: [1] 0.009 | vorinostat -0.088 | silmitasertib -0.04 | [2] -0.003 | entospletinib 0.046

Two successive records already listed, quoted:
MTCH2 (UniProt Q9Y6C9)
active: vorinostat -0.432
inactive: [1] -0.016 | silmitasertib -0.001 | [2] -0.075 | entospletinib 0.026

MRPL9 (UniProt Q9BYD2)
inactive: [1] 0.044 | vorinostat -0.073 | silmitasertib 0.018 | [2] -0.028 | entospletinib -0.02

Continued.

MTFR2 (UniProt Q6P444)
inactive: [1] 0.05 | vorinostat -0.197 | silmitasertib 0.007 | [2] -0.032 | entospletinib 0.043

MTSS2 (UniProt Q765P7)
inactive: [1] 0.009 | vorinostat -0.081 | silmitasertib -0.031 | [2] -0.02 | entospletinib -0.036

MTCH1 (UniProt Q9NZJ7)
inactive: [1] -0.021 | vorinostat 0.046 | silmitasertib 0.012 | [2] -0.02 | entospletinib 0.044

MRPS22 (UniProt P82650)
inactive: [1] 0.046 | vorinostat -0.029 | silmitasertib 0.01 | [2] -0.04 | entospletinib -0.016

MT1G (UniProt P13640)
inactive: [1] -0.118 | vorinostat -0.595 | silmitasertib 0.155 | [2] -0.212 | entospletinib 0.06

MRPS15 (UniProt P82914)
inactive: vorinostat -0.138 | silmitasertib -0.065 | [2] 0.028 | entospletinib -0.034

MRPS2 (UniProt Q9Y399)
inactive: [1] -0.006 | vorinostat 0.008 | silmitasertib 0.115 | [2] -0.026 | entospletinib 0.015

MRS2 isoform 2 (UniProt Q9HD23)
inactive: [2] -0.132

MRPS14 (UniProt O60783)
inactive: [1] -0.011 | [2] 0.1 | entospletinib -0.209

MTRF1 isoform 2 (UniProt O75570)
inactive: [2] -0.3

MRPL4 (UniProt Q9BYD3)
inactive: [1] 0.01 | vorinostat 0.033 | silmitasertib -0.037 | [2] 0.017 | entospletinib 0.015

MTMR8 (UniProt Q96EF0)
inactive: vorinostat -0.081 | silmitasertib 0.313

MTHFD2L (UniProt Q9H903)
inactive: vorinostat 0.176 | silmitasertib -0.081 | [2] 0.089

MS4A3 (UniProt Q96HJ5)
inactive: [1] -0.05 | [2] 0.11 | entospletinib -0.055
